Measurements reported in patent US20130217664A1, “NOVEL COMPOUNDS USEFUL FOR THE TREATMENT OF DEGENERATIVE AND INFLAMMATORY DISEASES” (priority 2012, published 2013).

Chains of the proteins cited; added tags and fusions are not shown. Residues count along the entry.
UniProt P23458, 866-1154 limits assumed: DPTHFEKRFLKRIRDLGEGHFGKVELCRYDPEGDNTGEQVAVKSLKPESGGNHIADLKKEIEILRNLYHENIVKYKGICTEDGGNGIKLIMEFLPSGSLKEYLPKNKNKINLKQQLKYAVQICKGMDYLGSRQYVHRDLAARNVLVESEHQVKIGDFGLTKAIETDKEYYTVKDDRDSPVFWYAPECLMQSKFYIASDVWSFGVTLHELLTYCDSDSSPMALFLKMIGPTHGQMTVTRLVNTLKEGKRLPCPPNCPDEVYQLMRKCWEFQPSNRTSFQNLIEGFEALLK

Target: human JAK1 (Homo sapiens, UniProt P23458)
Experiment: JAK1 inhibition assay (polyGT substrate / Ulight-JAK1 peptide)
Assay type: biochemical
Conditions: read-out: JAK1 IC50; recombinant human JAK1 catalytic domain; polyGT or Ulight-JAK1 peptide assay

SMILES: COc1cc(C2CCN(C(=O)OC(C)(C)C)CC2)ncc1N(C)c1cc2c(cn1)ncn2C
- IC50: > 1 µM

Structures were worked out from names or drawings and are uncertain.
